According to the supplement of paper PMC7858590:
± gives the standard deviation of the averaged measurements. Over roughly 3,800 compounds, “cell shape (eccentricity) Z-score vs DMSO control” has its median near 1.1; the lowest 2% begin near -4.7. Some of the results follow.

test system: human monocyte-derived macrophages (M0); test: cell shape (eccentricity) Z-score vs DMSO control; higher = more elongated, M2-like morphology; conditions: 20 µM; 24 h; macrophage state: M0 (M-CSF)

Row | SMILES | cell shape (Z-score)
1 | CN1CCC(=C2c3ccccc3CCc3sccc32)CC1 | -2.26
2 | COc1cc(CCC(O)CC(=O)CCc2ccc(O)cc2)ccc1O (stereo not drawn) | 1.04
3 | CC1OC(Oc2ccc(-c3cc(=O)c4c(O)cc(OC5OC(CO)C(O)C(O)C5O)cc4o3)cc2)C(O)C(O)C1O (stereo not drawn) | 0.721 ± 2.7
4 | COc1cc2c(cc1-c1coc3cc(O[C@@H]4O[C@H](CO)[C@@H](O)[C@H](O)[C@H]4O)ccc3c1=O)OCO2 | 2.47
5 | O=C(NOCC(O)CO)c1cc(Br)c(F)c(F)c1Nc1ccc(I)cc1F (stereo not drawn) | -0.375
6 | C/C(=C/COc1c(OC2OC(CO)C(O)C(O)C2O)ccc2ccc(=O)oc12)CO (stereo not drawn) | 3.07 ± 1.4
7 | C/C=C/C#CC#C[C@@H](O[C@@H]1O[C@H](CO)[C@@H](O)[C@H](O)[C@H]1O)[C@H](O)/C=C/CCCO | -5.71
8 | OC1COC(OCC2OC(OCc3ccccc3)C(O)C(O)C2O)C(O)C1O (stereo not drawn) | 2.15
9 | CCCCCCCNS(=O)(=O)c1cccc2c(Cl)cccc12 | 0.986
10 | CC1=CC(=O)OC1(O)CCC(C)CC(=O)O (stereo not drawn) | 0.759
11 | CCCCc1oc2ccccc2c1C(=O)c1cc(I)c(OCCN(CC)CC)c(I)c1 | 4.05
12 | O=c1oc(Cl)c(Cl)c2ccccc12 | 0.54
13 | CCOc1ccc2c(c1)C(C)=CC(C)(C)N2 | 0.434
14 | COc1ccc(CCc2cc(OC)cc(=O)o2)cc1 | -1.054 ± 0.0014
15 | CC(C)c1ccc(Cn2ccc3c4c(N)nc(NC5CC5)nc4ccc32)cc1 | -4.69
16 | CCOc1ccc(Cc2nccc3cc(OCC)c(OCC)cc23)cc1OCC | 4.7
17 | CN1CCCN=C1COC(=O)C(O)(c1ccccc1)C1CCCCC1 (stereo not drawn) | 0.631
18 | Cc1nc2n(c(=O)c1CCN1CCC(c3noc4cc(F)ccc34)CC1)CCCC2 | -1.11
19 | COc1ccc(-c2cc(=O)c3c(OC)c(OC)c(OC)c(OC)c3o2)cc1 [listing 1 of 2 here] | 3.86
20 | CC(=O)c1ccc(O[C@@H]2O[C@H](CO)[C@@H](O)[C@H](O)[C@H]2O)c(/C=C/C(C)(C)O)c1 | -0.664
21 | COc1ccc(-c2cc(=O)c3c(OC)c(OC)c(OC)c(OC)c3o2)cc1 [listing 2 of 2 here] | 2.3
22 | CC(C)=CCc1c(O)cc2oc(C)cc(=O)c2c1O | 4.53

Row | SMILES | cell shape (Z-score)
23 | CC(C=CC=C(C=CC1=C(C)CCCC1(C)C)c1ccc(C)cc1)=CC(=O)O | -2.02
24 | O=C(O)CCC/C=C\C[C@@H]1CO[C@H](C(F)(F)F)O[C@@H]1c1ccccc1O | -2.6
25 | CC12CC3CC(C)(C1)CC(N)(C3)C2 | 1.66
26 | O=C(O)CCC1OC(=O)C(=O)C1c1ccccc1 (stereo not drawn) | -0.0949
27 | COc1ccc2oc(-c3ccccc3)cc(=O)c2c1 | 1.24
28 | CC(C)n1cnc2c(NCc3ccccc3)nc(NCCO)nc21 | 8.04
29 | C[C@]12CCC3c4ccc(O)cc4CC[C@H]3C1CC[C@H]2O (stereo partly drawn) | 2.17 ± 0.22
30 | C/C(=C\CCC(C)C1CC(O)C2(C)C3CCC4C(C)(C)C(OC5OCC(O)C(O)C5O)CCC45CC35CC(O)C12C)C(=O)O (stereo not drawn) | 0.534
31 | CC(=O)O[C@@H]1[C@@H](OC(=O)/C=C/c2ccccc2)[C@@H](OC(=O)/C=C/c2ccccc2)[C@H](O[C@H]2[C@@H]3C=CO[C@@H](O[C@@H]4O[C@H](CO)[C@@H](O)[C@H](O)[C@H]4O)[C@@H]3[C@@]3(CO)O[C@@H]23)O[C@H]1C | 0.429 ± 1.5
32 | CC(C)=CCCC1(C)C=Cc2c(ccc3c2[nH]c2cc(O)c(C)cc23)O1 (stereo not drawn) | 1.36
33 | CC(C)(O)C1Cc2cc(CCc3cc(O)cc(O)c3)ccc2O1 (stereo not drawn) | 2.22
34 | Cn1ccc2cc3c(cc21)CCN3C(=O)Nc1cccnc1 | 0.667
35 | Cc1c(C(=O)N(C)C2CCCCC2)sc2nc3ccc(N)cc3n12 | -0.53
36 | CCOc1nc2cccc(C(=O)OC(C)OC(=O)OC3CCCCC3)c2n1Cc1ccc(-c2ccccc2-c2nnn[nH]2)cc1 (stereo not drawn) | -4.32
37 | Cc1cc2nc3c(=O)[nH]c(=O)nc-3n(C[C@@H](O)[C@@H](O)[C@@H](O)CO)c2cc1C | 0.422
38 | CC(C)(C)c1cc(O)c(C(C)(C)C)cc1O | 0.862
39 | O=C(NC1CCCCC1)C(c1ccccc1Cl)N(C(=O)Cc1cccs1)c1cccc(F)c1 (stereo not drawn) | 2.3
40 | NCCCCCc1cnc[nH]1 | -0.662
41 | CCCCCCCCN[C@H](C)[C@@H](O)c1ccc(SC(C)C)cc1 | -2.88
42 | Cc1nnc(SCC2=C(C(=O)O)N3C(=O)[C@@H](N)[C@H]3SC2)s1 | 2.87
43 | CC(C)(C)CC(C)(C)c1ccc(OCCOCC[N+](C)(C)Cc2ccccc2)cc1 | -0.216

Copied from the list:
In cell shape (Z-score), CN1CCCN=C1COC(=O)C(O)(c1ccccc1)C1CCCCC1 (stereo not drawn) has the entry 0.631
In cell shape (Z-score), CC(C)(C)CC(C)(C)c1ccc(OCCOCC[N+](C)(C)Cc2ccccc2)cc1 has the entry -0.216
